Some peptides are written in HELM: one residue between dots, names in brackets for other building blocks, links after the first $.
Assay: peptide synthesis
Details: conjugation step

Question: Which conjugation yield does the source give for “PEPTIDE1{R.G.D.[dF].K}|CHEM1{[DP]}$PEPTIDE1,PEPTIDE1,1:R1-5:R2|PEPTIDE1,CHEM1,5:R3-1:R2$$$V2.0” here?
Answer: The conjugation yield was 86%.

Question: And the “final HPLC purity” value (analytical HPLC, UV detection at 220 nm or 254 nm)?
Answer: The value was ≥95%.
